# The other results are listed elsewhere or left out. These are further read-outs of the screen, such as a control signal, another cell line or another target. No call is given for them. The list favours compounds with an active or inconclusive main result. Potencies come from curve fits of mixed quality, noted in brackets.
# Assay: NCATS anti-infectives library activity on the primary C. elegans qHTS viability assay (AID 1745855)
# Conditions: C. elegans worm area imaging, day 7; measured here: worm number, day 3
# Procedure, shortened: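 Viability is taken from GFP fluorescence of PE254-GFP-FLuc C. elegans imaged by laser cytometry over 7 days. Ten L1 worms per well grow at 21 °C on TOP10 E. coli capsules with titrated compound; levamisole marks toxicity.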
row,Structure (SMILES),AC50
1,CS(=O)(=O)c1cc(-c2ccccc2)cc(S(=O)(=O)c2ccc(CN)s2)c1,"9.16 µM [falling, single point]"
2,Cc1cccc(/C=N/Nc2cc(N3CCOCC3)nc(OCCc3ccccn3)n2)c1,"25.8 µM [falling, single point]"
3,CN(C)CC(=O)Nc1ccc2[nH]c(=O)c3ccccc3c2c1,"0.325 µM [falling, full curve, poor fit]"
4,CC(=O)Nc1cccc(-n2c(=O)n(C3CC3)c(=O)c3c(Nc4ccc(I)cc4F)n(C)c(=O)c(C)c32)c1,"0.0816 µM [falling, full curve, poor fit]"
5,CC(C)(CNC(=O)c1cccc(-c2noc(C(F)(F)F)n2)c1)c1coc(-c2ccccc2)n1,"2.3 µM [falling, partial curve, poor fit]"
6,O=C(NCc1ccco1)c1ccc2c(c1)N(Cc1c(F)cccc1Cl)C(=O)CS2,"0.115 µM [falling, full curve, poor fit]"
7,O=c1c(O[C@@H]2O[C@H](CO)[C@H](O)[C@H](O)[C@H]2O)c(-c2ccc(O)c(O)c2)oc2cc(O)cc(O)c12,"25.8 µM [falling, single point]"
8,O=C(/C=C\n1cnc(-c2cc(C(F)(F)F)cc(C(F)(F)F)c2)n1)NNc1cnccn1,"36.5 µM [falling, single point]"
9,CC#Cc1cncc(-c2ccc3c(c2)[C@@]2(N=C(C)C(N)=N2)C2(CCC(OC)CC2)C3)c1 (stereo not given in full),"4.59 µM [falling, partial curve, poor fit]"
10,Cc1cnc(NC(=O)c2cc(S(=O)(=O)N(C)C)ccc2N2CCCC2)s1,"2.9 µM [falling, partial curve, poor fit]"
11,CC(C)C[C@H](NC(=O)[C@H](Cc1ccccc1)NC(=O)c1cnccn1)B(O)O,"0.0816 µM [falling, full curve, poor fit]"
12,CCOC(=O)c1c(C)sc(-c2c(-c3ccc(OC)c(F)c3)[nH]c3c2c(=O)[nH]c(=O)n3C)c1O,"5.78 µM [rising, full curve, poor fit]"
13,O=P(O)(O)C(O)(Cn1ccnc1)P(=O)(O)O,"0.0092 µM [falling, full curve, poor fit]"
14,O=C(O)c1ccccc1O,"25.8 µM [rising, single point]"
15,O=c1[nH]cc(F)c(=O)[nH]1,"0.115 µM [falling, full curve, poor fit]"
16,CCCCCCOc1ccccc1C(N)=O,"0.29 µM [falling, full curve, poor fit]"
17,CN(C)c1nc2c(Br)c(Br)c(Br)c(Br)c2n1CC(=O)O,"45.9 µM [rising, single point]"
18,COc1c(C)c2c(c(O)c1C/C=C(\C)CCC(=O)OCCN1CCOCC1)C(=O)OC2,"10.3 µM [falling, partial curve, poor fit]"
19,CC[C@@]1([C@@H]2O[C@@H]([C@H]3O[C@@](O)(CO)[C@H](C)C[C@@H]3C)C[C@@H]2C)CC[C@H]([C@]2(C)CCC3(C[C@H](O)[C@@H](C)[C@@H]([C@@H](C)[C@@H](OC)[C@H](C)C(=O)O)O3)O2)O1 (stereo not given in full),"0.0578 µM [falling, partial curve, poor fit]"
20,Cc1cc(/C=C\c2ccc3cc(N(C)C)ccc3[n+]2C)c(C)n1-c1ccccc1,"25.8 µM [falling, single point]"
21,CC(C)c1cc(C(=O)N2CC[C@@H](NC(=O)C3CC3)C2)n[nH]1,"16.3 µM [falling, partial curve, poor fit]"
22,C=CC[C@@H]1/C=C(\C)C[C@H](C)C[C@H](OC)[C@H]2O[C@@](O)(C(=O)C(=O)N3CCCC[C@H]3C(=O)O[C@H](/C(C)=C/[C@@H]3CC[C@@H](O)[C@H](OC)C3)[C@H](C)[C@@H](O)CC1=O)[C@H](C)C[C@@H]2OC,"0.0578 µM [falling, full curve, poor fit]"
23,CN1C(N)=N[C@](C)(c2cc(NC(=O)c3ccc(F)cn3)ccc2F)CS1(=O)=O,"25.8 µM [falling, single point]"
24,CC(C)C[C@H](NC(=O)CNC(=O)c1cc(Cl)ccc1Cl)B(O)O,"7.27 µM [falling, partial curve, poor fit]"
25,Cc1cnc(-c2ccccc2C(C)C)nc1NCc1ccc(-n2ccnn2)cc1,"25.8 µM [falling, single point]"

# 3 compounds out of the list, ordered by SMILES length, low to high:
row,Structure (SMILES),AC50
2,Cc1cccc(/C=N/Nc2cc(N3CCOCC3)nc(OCCc3ccccn3)n2)c1,"25.8 µM [falling, single point]"
6,O=C(NCc1ccco1)c1ccc2c(c1)N(Cc1c(F)cccc1Cl)C(=O)CS2,"0.115 µM [falling, full curve, poor fit]"
18,COc1c(C)c2c(c(O)c1C/C=C(\C)CCC(=O)OCCN1CCOCC1)C(=O)OC2,"10.3 µM [falling, partial curve, poor fit]"
